Measured values taken from PubChem BioAssay AID2685 (National Center for Advancing Translational Sciences (NCATS), 2010).
The other results are listed elsewhere or left out. The main result of the screen is listed elsewhere. These columns were measured beside it and carry no call. Compounds called inactive in the main read-out are mostly missing here. Words in brackets tell the shape of the fitted curve; partial curves, single points and poor fits give uncertain potencies.

Assay: qHTS Assay for Lipid Storage Modulators in Drosophila S3 Cells;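 as to cell number change: cells counted by Cell Tracker Red CMTPX staining in the red channel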
Conditions: BODIPY lipid droplet fluorescence, 18-24 h; for cell number change: measured here: cell count max response, cells fed with added oleic acid
Procedure, shortened: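 Drosophila S3 cells got compounds at several concentrations plus oleic acid (400 uM solution). Laser-scanning cytometry with 488 nm excitation read lipid droplets at 500-530 nm and cells at 575-640 nm. Percent activity was relative to 20 uM Triacsin C.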

[1] = measured here: lipid fluorescence (Fed channel) AC50, cells fed with added oleic acid
[2] = measured here: cell number channel AC50, cells fed with added oleic acid

Row | Structure (SMILES) | AC50 [1] | cell number change [%] | AC50 [2]
1 | CC(=O)NCC(c1cccs1)S(=O)(=O)c1ccc(F)cc1 (stereo not drawn) | 0.103 µM [rising, single point] |  | 
2 | Cc1sc2nc(C(C)Sc3n[nH]c(N)n3)[nH]c(=O)c2c1C (stereo not drawn) |  | 68.5 | 
3 | O=C(N/N=C/c1cccc(O)c1)c1csc2ccccc12 |  | -11 | 
4 | C=CCOC(=O)c1c(C)nc2cc3c(cc2c1C)OCO3 | 0.00411 µM [rising, full curve, poor fit] | 7.54 | 
5 | Cc1[nH]c2ccccc2c1SCC(=O)N1CCCc2ccccc21 |  | -0.735 | 
6 | O=C(O)c1cccc(Nc2nc(N3CCOCC3)nc(N3CCOCC3)n2)c1 | 29.1 µM [falling, single point] | -169 | 29.1 µM [falling, single point]
7 | O=C(c1ccc2c(=O)n(C3CCCC3)c(=S)[nH]c2c1)N1CCCCCC1 | 18.4 µM [falling, partial curve, poor fit] | -36.1 | 10.3 µM [falling, partial curve, poor fit]
8 | Cc1ccc(-c2noc(CCCOc3ccc(Cl)cc3Cl)n2)cc1 |  |  | 0.00517 µM [falling, full curve, poor fit]
9 | O=C(Cn1[nH]c(=O)c2ccccc2c1=O)N1CC=C(c2ccccc2)CC1 | 20.6 µM [rising, partial curve] | 305 | 20.6 µM [rising, partial curve]
10 | CN(C(=O)c1ccc(NC(=O)Cc2cccc(NC(=O)C3CCN(C(=O)C4CCC4)CC3)c2)cc1)C1CCCC1 |  | 16.3 | 1.03 µM [falling, single point]
11 | Cc1ccc(S(=O)(=O)NC(C)(C)C)cc1C(=O)OCC(=O)N1CCCC1=O | 1.3 µM [falling, full curve, poor fit] | 14.4 | 
12 | COc1ccc(CCNCC(=O)Nc2ccc(C(=O)N3CCCCC3)cc2)cc1 |  | -2.17 | 
13 | O=C(Nc1cccc(-c2cnc3ccccc3n2)c1)c1ccc(Cl)cc1 |  | -33.4 | 0.00461 µM [falling, full curve, poor fit]
14 | Cc1cc(C)n(-c2nc(NCC(C)O)c3c4c(sc3n2)CCCC4)n1 (stereo not drawn) | 29.1 µM [falling, single point] | -30.3 | 29.1 µM [falling, single point]
15 | CC/C=C(/NC(C)=O)c1ccccc1 | 3.66 µM [rising, single point] | 8.8 | 
16 | O=C(Cc1ccccc1)NC(c1ccco1)c1c(O)ccc2ccccc12 (stereo not drawn) | 14.6 µM [falling, single point] | -24.1 | 
17 | CS(=O)(=O)N1CCc2cc(-c3csc(NC(=O)Cc4ccccc4)n3)ccc21 | 18.4 µM [falling, partial curve, poor fit] | -29.1 | 
18 | CC(C)(C)C(=O)Nc1ccc(C(=O)COC(=O)C2CC2)cc1 |  | -8 | 
19 | CCCN1CCN(C(=O)Cn2nc(C)n3c(cc4sccc43)c2=O)CC1 | 0.0651 µM [rising, partial curve, poor fit] | 9.06 | 
20 | CCN(CC)C(=O)COc1ccc2c3c(c(=O)oc2c1)CCCC3 |  | 22.8 | 
21 | CCc1ccccc1NC(=O)NC(C)c1ccc2c(c1)OCO2 (stereo not drawn) | 20 µM [rising, single point] | 18.9 | 

Row | Structure (SMILES) | AC50 [1] | cell number change [%] | AC50 [2]
22 | CC(=O)OCc1c(C(F)(F)F)nn(C)c1Oc1cccc(C(F)(F)F)c1 | 2.06 µM [rising, partial curve, poor fit] | 3.32 | 
23 | COc1ccc(S(=O)(=O)Nc2c(C)cc(C)cc2C)c2cccnc12 |  | 16.8 | 
24 | NC1=NCC(O)=C1c1nc2ccccc2[nH]1 |  | 80.2 | 6.51 µM [rising, partial curve, poor fit]
25 | O=C1CCCc2c1nc(-c1ccc(F)cc1)n2O | 6.51 µM [rising, single point] | 7.72 | 6.51 µM [rising, single point]
26 | COc1ccc(S(=O)(=O)N(C)CC(=O)N2CCC(C(N)=O)CC2)cc1 | 0.461 µM [falling, full curve] |  | 
27 | CCCCN(C(=O)CCC(=O)Nc1cc(C)on1)C(C(=O)NC1CCCC1)c1ccc(OC)cc1 (stereo not drawn) | 6.51 µM [rising, single point] | 6.52 | 
28 | O=C(/C=C/c1c(F)cccc1Cl)N1CCc2ccccc2C1 |  | -5.47 | 
29 | COC(=O)C1=C(C)Nc2nc(SCc3ccccc3)[nH]c(=O)c2C1c1cccs1 (stereo not drawn) | 18.4 µM [rising, single point] |  | 
30 | CCOC(=O)/C(C#N)=C/C1=C(N2CCOCC2)CC(C)(C)OC1 | 0.259 µM [rising, full curve, poor fit] | 15.9 | 
31 | CCOC(=O)C1CCCN(c2c(NCC3CCCO3)c(=O)c2=O)C1 (stereo not drawn) |  | 31.1 | 6.51 µM [rising, partial curve, poor fit]
32 | NC(=O)c1ccccc1OCC(=O)N1CCCc2ccccc21 |  | 15.8 | 
33 | COc1ccc(C(=O)O/N=C(\N)c2ccccc2)cc1 | 29.1 µM [rising, partial curve] | -27.8 | 
34 | NS(=O)(=O)c1ccc(CCNC2CC(=O)N(Cc3ccccc3)C2=O)cc1 (stereo not drawn) | 9.2 µM [rising, single point] | 11.7 | 
35 | COc1ccc2nc(-c3ccccc3)nc(SCC(=O)NCC3CCCO3)c2c1 (stereo not drawn) |  | -14.4 | 
36 | COc1ccccc1N1CCN(C(=O)c2cc3c(=O)n(C)c4ccccc4c3n2C)CC1 | 1.46 µM [rising, full curve, poor fit] | 2.39 | 
37 | COc1ccccc1N(CC(=O)Nc1c(C)cccc1C)S(C)(=O)=O | 3.26 µM [rising, partial curve] | 2.3 | 
38 | NS(=O)(=O)c1ccc(-c2ccc(C=O)o2)cc1 |  | 12.5 | 0.58 µM [rising, single point]
39 | CCN(CC)S(=O)(=O)c1cccc(C(=O)NCC(=O)OCC(=O)NCc2ccccc2)c1 | 16.4 µM [falling, partial curve] | -12.7 | 
40 | C=C1SC(Nc2c(C)cc(C)cc2C)=NC12CCCCC2 | 2.31 µM [falling, full curve] | -44.4 | 5.17 µM [falling, full curve]
41 | COc1ccc(-n2ncc(C(=O)NC3CC3)c2C2CCN(C(=O)OC(C)(C)C)CC2)cc1 | 18.4 µM [falling, partial curve] |  | 

Copied from above, entries 23 to 24
Row | Structure (SMILES) | AC50 [1] | cell number change [%] | AC50 [2]
23 | COc1ccc(S(=O)(=O)Nc2c(C)cc(C)cc2C)c2cccnc12 |  | 16.8 | 
24 | NC1=NCC(O)=C1c1nc2ccccc2[nH]1 |  | 80.2 | 6.51 µM [rising, partial curve, poor fit]
